Laboratory results reported in patent US12607637B2, “Super-resolution morphology-correlated detection of labile zinc” (University of Cincinnati, priority 2020, dated 2026).
“Also recorded” adds a separate entry of the source.

Legend:
[1] = Spectroscopic study: fluorescence quantum yield and pH stability in DMSO/HEPES; format: physicochemical
Protocol: The stock solution of NapBu-BPEA was prepared with DMSO of HPLC pure grade to make the concentration as 10 mM, and frozen after packing at −20° C. The sample solutions were diluted to the final concentration as 10 μM with 3 mL HEPES buffer (50 mM, 100 mM KNO3, 10% DMSO, pH 7.2) in quartz cuvettes with 1 cm path lengths. The fluorescent spectra were recorded upon the excitation of 450 nm.
The Zn^2+ titration spectra were recorded by adding in aliquots Zn^2+ solution from 0 to 15 μM into the NapBu-BPEA solution (10 μM). The detection limit of NapBu-BPEA was determined by collecting the fluorescence spectra of NapBu-BPEA for 6 times to obtain the background noise (a). The probe's fluorescent sensing selectivity of NapBu-BPEA was recorded after adding metal cation (1000 eq K^+, Na^+, Ca^2+, Mg^2+; 1 eq Cd^2+, Ni^2+, Cr^3+, Pb^2+, Al^3+, Co^2+, Fe^2+, Fe^3+, Ba^2+, Mn^2+) to the NapBu-BPEA solution. The fluorescence quantum yields were determined by using Ru(bpy)3^2+ (Φ=0.04) in DMSO/HEPES (v:v, 1:9)(λex=450 nm) as the reference. To determine binding constant, various amounts of Zn(NO3)2 (0˜9 mM) were added to NapBu-BPEA solution buffered with DMSO/HEPES (50 mM, pH 7.21, 100 mM KNO3) containing 10 mM EGTA. The pH stability was measured by recording the fluorescence spectra of NapBu-BPEA solution in the presence of Zn^2+ at different pH adjusted with KOH and HCl.

[2] = tested on: HeLa cells; assay: SIM imaging of intracellular labile Zn^2+ on ZnPT loading and TPEN scavenging; format: cell-based; settings: ZnPT incubation
Protocol: In view of these promising results, a 1:2 mixture of ZnCl2 and pyrithione sodium salt, a cell-permeable Zn^2+ carrier (ZnPT) to transport exogenous Zn^2+ to cells, and a cell-permeable Zn^2+-chelating agent, TPEN, were used to evaluate the reversibility of fluorescence response to Zn^2+ in living cells according to methods described elsewhere. To determine the entry time of exogenous Zn^2+ into cells, NapBu-BPEA was incubated and an initial image was captured, after which 50 μM ZnPT (50 μM ZnCl2/100 μM pyrithione sodium salt) was used to replace the culture medium in dye-free and serum-free DMEM. […] The variance may be attributed to the difference in lipophilicity.
Next, NapBu-BPEA was investigated for its intracellular labile Zn^2+ imaging ability. Imaging experiments were performed in HeLa cells upon exogenous Zn^2+ loading via incubation with zinc pyrithione cmplex (ZnPT), a cell-permeable Zn^2+ carrier.
Intracellular labile Zn^2+ enhancement processes were tracked by recording SIM images every 2 min. […] While not desiring to be bound by theory, it is proposed that the butyl tail of NapBu-BPEA is responsible for the retained multiple organelle accumulation behavior of NapBu-BPEA upon Zn^2+ binding.

CCCCN1C(=O)c2cccc3c(NCCN(Cc4ccccn4)Cc4ccccn4)ccc(c23)C1=O [NapBu-BPEA, 2,4-(bis(pyridin-2-ylmethyl)aminoethyl)amino-N-n-butyl-1,8-naphthalimide]
fluorescence quantum yield ([1]; after 1 eq Zn^2+, DMSO/HEPES 1:9, pH 7.2): 0.797
relative fluorescence quantum yield ([1]; free probe, DMSO/HEPES 1:9, pH 7.2, reference Ru(bpy)3^2+): 0.318
fluorescence localization upon exogenous Zn^2+ loading [2]: continued to exhibit fluorescence in the cytoplasm; also recorded: no fluorescence appeared in the nucleus
